# No constants are given. Whether binding was seen depends on the method and setting. In cells and extracts the contact can be indirect. Sequences can lack the tags named with a protein.
# Protein sequences, listed by entry. Tags and fused reporters are not part of them. Residues count along the entry.
# UniProt P35951, residues 22-862: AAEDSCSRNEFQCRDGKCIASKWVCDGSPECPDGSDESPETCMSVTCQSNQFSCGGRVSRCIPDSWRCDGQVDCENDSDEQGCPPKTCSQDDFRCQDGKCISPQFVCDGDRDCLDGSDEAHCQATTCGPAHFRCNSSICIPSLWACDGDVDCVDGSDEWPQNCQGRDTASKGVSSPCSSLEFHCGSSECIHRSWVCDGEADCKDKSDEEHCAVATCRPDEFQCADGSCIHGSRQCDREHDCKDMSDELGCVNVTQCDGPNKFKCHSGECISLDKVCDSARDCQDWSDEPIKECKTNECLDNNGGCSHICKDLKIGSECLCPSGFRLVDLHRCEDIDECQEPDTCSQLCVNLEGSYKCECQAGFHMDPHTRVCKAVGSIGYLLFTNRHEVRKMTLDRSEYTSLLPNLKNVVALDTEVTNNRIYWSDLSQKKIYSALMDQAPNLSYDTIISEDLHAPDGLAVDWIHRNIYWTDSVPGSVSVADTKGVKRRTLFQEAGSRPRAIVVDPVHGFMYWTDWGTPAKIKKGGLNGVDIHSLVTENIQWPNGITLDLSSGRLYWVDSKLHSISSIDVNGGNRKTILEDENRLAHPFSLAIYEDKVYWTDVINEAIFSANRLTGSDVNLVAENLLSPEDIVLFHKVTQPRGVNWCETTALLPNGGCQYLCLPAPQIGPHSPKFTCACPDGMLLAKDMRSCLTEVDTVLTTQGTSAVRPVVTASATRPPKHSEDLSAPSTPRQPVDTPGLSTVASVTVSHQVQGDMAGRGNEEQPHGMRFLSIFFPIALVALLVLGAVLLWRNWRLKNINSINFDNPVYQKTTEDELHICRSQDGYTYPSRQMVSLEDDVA
# Target: T1, GST-PID1 fusion protein (murine phosphotyrosine interacting domain-containing protein 1) (mouse) (UniProt Q3UBG2)
# T1 sequence: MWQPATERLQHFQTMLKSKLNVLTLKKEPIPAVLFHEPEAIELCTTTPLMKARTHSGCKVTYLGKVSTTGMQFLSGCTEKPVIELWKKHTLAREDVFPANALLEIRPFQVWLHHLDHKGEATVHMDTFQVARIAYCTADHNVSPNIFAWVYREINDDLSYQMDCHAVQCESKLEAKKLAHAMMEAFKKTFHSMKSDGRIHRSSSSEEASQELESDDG
# Experiment: pull-down; GST-PID1 incubated over night at 4 °C with liver lysates (150 μg) of wild type, LRP1 knockin or liver-specific Lrp1-/- mice; washed six times with PBS; Western blot; only the target purified
substance,measurement,value
"low-density lipoprotein receptor (LDLR), endogenous in wild type mouse liver (from UniProt P35951 22-862)",binding,no binding

# Source: publication PMC6158030
